Source: PubChem BioAssay AID1688 (National Center for Advancing Translational Sciences (NCATS), 2009)
About 2,400 (1.1%) of roughly 220,000 compounds were called active. The shares of active, inactive and inconclusive entries below differ from those in the screen. Calls follow the shape of the dose curve; as a rule, active = well fitted inhibition curve with a large enough effect; inconclusive = small, poorly fitted or top-dose-only effect, or effect the other way; inactive = no such curve, though single readings can be large or run the other way. Potencies of inconclusive entries are doubtful fits and often do not repeat.

Experiment: qHTS Multiplex Assay to Identify Dual Action Probes in a Cell Model of Huntington: Aggregate Formation (GFP); also: nearly all actives have a fitted effect of over 60% in size
Conditions: PC12 HttQ103-GFP aggregates, Acumen cytometry, 40 h; series mostly up to 46.1 µM
In short: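 Compounds (qHTS titration) were added to PC12 cells expressing an ecdysone-driven HTT exon 1 Q103–GFP fusion after induction with 100 nM tebufenozide. Aggregate formation was measured as GFP objects in cell lysates.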
Potency is read from the fitted curve at half-maximal effect.

Structure (SMILES) | Potency
O=C(NCCCNc1ccc(C(F)(F)F)cc1[N+](=O)[O-])c1cc(F)c(F)cc1Cl | inconclusive: 15.8 µM [inhibitor, single point]
CCC(C)NC(=S)N1CCN(Cc2ccccc2)CC1 (configuration not stated) | active: 0.562 µM
N=C1C(c2nc(-c3ccc(F)cc3)cs2)=C(O)CN1Cc1ccc(Cl)cc1 | inconclusive: 0.562 µM [inhibitor, full curve]
CCc1ccc(OCCCOc2ccc(C=O)cc2)cc1 | inactive
COc1ccc(NC(=O)COC(=O)CNS(=O)(=O)c2ccc(C)cc2)c(OC)c1 | inconclusive: 11.2 µM [inhibitor, single point]
Cc1cc(Br)ccc1OCC(=O)N(Cc1nc(-c2ccccc2)no1)C(C)C | inactive
O=C1c2ccccc2NC(c2ccco2)N1O (configuration not stated) | inactive
CCn1c(C)nc2cc(C(=O)N/N=C/c3ccccc3)ccc21 | inactive
Nc1nonc1C(=O)NCCNS(=O)(=O)c1ccc(Br)cc1 | inactive
COc1cccc(-n2sc3c(c2=S)-c2cc(OC)ccc2NC3(C)C)c1 | inconclusive: 22.4 µM [inhibitor, single point]
CCc1c(C)nc2ncnn2c1NCCc1ccc(OC)cc1 | inconclusive: 3.16 µM [inhibitor, full curve]
CCOC(=O)c1sc(NC(=O)CCCCl)nc1C | inactive
Cc1cccc(N2CCN(C(c3cccs3)c3nnnn3C(C)(C)C)CC2)c1C (configuration not stated) | active: 11.2 µM
O=C(/C=C/c1cccs1)N1CCc2ccccc21 | inconclusive: 35.5 µM [inhibitor, single point]
COc1ccc(NCCNc2ccc(OC)cc2)cc1 | inactive
CC(C(=O)NCCC1=CCCCC1)N1C(=O)c2ccccc2C1=O (configuration not stated) | active: 5.62 µM
Cc1ccnc(N/C=C(/NC(=O)c2ccccc2)C(=O)N/N=C\c2ccc(F)cc2)n1 | inconclusive: 3.98 µM [activator, partial curve]
Cc1ccc(OCCCCn2cnc3ccccc32)cc1 | inconclusive: 35.5 µM [inhibitor, single point]
CCOC(=O)N1CCN(C(=O)c2ccc3c(=O)n(CCC4=CCCCC4)c(=S)[nH]c3c2)CC1 | inactive
COCc1c(C(=O)N2CCN(c3ccc(C(F)(F)F)cn3)CC2)oc2ccccc12 | inconclusive: 35.5 µM [inhibitor, single point]
Cc1ccc2nc(Cl)c3cc(C(=O)NCCCN4CCCC4)sc3c2c1 | inactive
Cc1cc(C)cc(NS(=O)(=O)c2ccc(NC(=S)NC(=O)c3ccc(Br)o3)cc2)c1 | inconclusive: 17.8 µM [inhibitor, single point]

Pulled by structure from the entries so far, 2 records:
Structure (SMILES) | Potency
COCc1c(C(=O)N2CCN(c3ccc(C(F)(F)F)cn3)CC2)oc2ccccc12 | inconclusive: 35.5 µM [inhibitor, single point]
CC(C(=O)NCCC1=CCCCC1)N1C(=O)c2ccccc2C1=O (configuration not stated) | active: 5.62 µM
